The values that follow are results of earlier work, collected in publication PMC8557888, “Intracellular Accumulation of Novel and Clinically Used TB Drugs Potentiates Intracellular Synergy” (Microbiology Spectrum, 2021).

The conditions of this series: cited from earlier work.

With `O=C(O)c1cn(C2CC2)c2cc(N3CCNCC3)c(F)cc2c1=O` [ciprofloxacin], the “log ratio ELF/plasma” value is on record as −0.2.
